# Experimental data: the supplement of paper PMC8288183
# This is one part of the list. Many values rest on one well or one pass, so single values are uncertain.
# Molecular target: T1, NSUN6 (UniProt Q8TEA1)
# T1 sequence: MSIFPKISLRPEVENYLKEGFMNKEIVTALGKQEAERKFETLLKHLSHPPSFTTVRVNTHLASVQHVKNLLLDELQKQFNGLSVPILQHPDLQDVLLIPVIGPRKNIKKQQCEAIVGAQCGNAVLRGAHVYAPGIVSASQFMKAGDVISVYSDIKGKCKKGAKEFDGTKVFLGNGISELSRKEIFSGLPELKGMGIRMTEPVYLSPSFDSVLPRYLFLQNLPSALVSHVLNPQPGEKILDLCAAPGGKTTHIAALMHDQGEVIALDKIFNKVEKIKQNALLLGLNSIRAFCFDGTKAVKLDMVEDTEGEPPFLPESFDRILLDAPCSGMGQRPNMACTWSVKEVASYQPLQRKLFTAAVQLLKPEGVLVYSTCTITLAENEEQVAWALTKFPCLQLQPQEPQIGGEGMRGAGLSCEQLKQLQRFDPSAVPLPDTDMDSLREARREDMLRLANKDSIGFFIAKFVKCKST
# Experiment: m5C methylation level at the target C (C/(C+U) bisulfite reads) (fraction); higher = more methylation by NSUN6; extreme values may be limits of the assay
# Conditions: HEK293T (wild-type)
# Experimental: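 High-throughput mutagenesis reporter. About 140 bp oligo-pool variants of four natural Type II m5C substrates (substrate #1 chr15:91425541; #2 RAB15 3'UTR chr14:65413377; #3 SULT2A1 5'UTR chr19:48389569; #4 NAAA CDS chr4:76857361) were cloned as 3'UTR elements of psiCHECK-2 luciferase and transfected into wild-type HEK293T cells. Total RNA was taken 48 h later and m5C level was measured by targeted bisulfite sequencing as C/(C+U) reads at the m5C site (one library).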
# [1] = parent substrate: substrate #1 (main figure)
Sequence,m5C methylation level at the target C [1],m5C methylation level at the target C (parent substrate: substrate #2),m5C methylation level at the target C (parent substrate: substrate #3),m5C methylation level at the target C (parent substrate: substrate #4)
ACGAAU,0.0014,0.00375,0.00149,0
UCUUAG,0,0,0,0.00128
CCCCAA,0,0.00143,0.000694,0
CCAAGC,0,0,0.00257,0
ACUCAA,0.0102,0,0.00672,0.00578
ACGGGC,0,0.00434,0.000772,0.00125
UCAUAC,0.000681,0,0.0016,0.00355
ACGCUC,0.00543,0.0033,0.00336,0
UCUCUC,0,0,0.000678,0.00133
ACCUUC,0.0024,0.00351,0.00198,0
GCAAGA,0.00223,0,0.00205,0.00839
UCAAGG,0.000578,0,0.000525,0.00136
CCGAGU,0,0.0115,0.00345,0.00325
ACUCUA,0.28,0.0152,0.154,0.0821
ACGUGU,0.00153,0.00669,0.00483,0.00729
ACCCGC,0.00253,0.00287,0.00134,0.00534
CCACAG,0,0,0.000956,0
GCGCCU,0.0015,0.00185,0.00197,0.00352
GCCCCU,0,0.0014,0.000395,0.00232
CCCCUC,0,0.00282,0,0.00121
UCGAAG,0.00178,0.00185,0.00816,0.0021
ACGAGG,0.0114,0.00494,0.00378,0.00247
CCCCUG,0.000652,0.00148,0.00789,0.000592
GCGGGG,0.00379,0.0043,0.00129,0.000418
ACCACA,0,0,0,0.00119

Sequence,m5C methylation level at the target C [1],m5C methylation level at the target C (parent substrate: substrate #2),m5C methylation level at the target C (parent substrate: substrate #3),m5C methylation level at the target C (parent substrate: substrate #4)
ACAUGC,0,0,0.00237,0.000638
ACGGUU,0,0,0.00468,0.00236
GCAUAC,0.000448,0,0.000996,0.00126
CCGGUU,0.000891,0.00131,0,0.00139
UCCAAC,0,0.00357,0.00238,0.000536
ACCGCA,0,0.00167,0.00105,0.00289
ACAUCA,0,0,0,0.00173
GCAACC,0,0,0,0
UCAAUA,0.00175,0,0,0.00474
ACAAGU,0.00214,0.00929,0.0021,0
CCCACC,0.000876,0,0.00297,0.00186
UCUGGG,0.00064,0.00423,0.00134,0
ACCCCA,0.0355,0.00154,0,0.00686
CCGCCC,0,0,0.00099,0
ACUCGU,0.00202,0.00187,0.000984,0.000717
ACUUGG,0.000869,0,0.00152,0.00911
ACAACC,0,0,0,0.00249
GCUUCU,0.0041,0,0.00266,0.000648
CCUCAA,0.016,0,0.0168,0.00699
CCAUCA,0.00259,0,0.000306,0
UCAGUC,0,0,0.000856,0
CCAAAA,0,0.00112,0.0015,0.00174
UCUACG,0.000452,0.00504,0.000377,0.00221
GCCGCG,0.00203,0.00115,0,0.00838
GCAAGC,0,0.00329,0,0

# Shown with bars between the fields: entries from further up.
Sequence | m5C methylation level at the target C [1] | m5C methylation level at the target C (parent substrate: substrate #2) | m5C methylation level at the target C (parent substrate: substrate #3) | m5C methylation level at the target C (parent substrate: substrate #4)
ACGGUU | 0 | 0 | 0.00468 | 0.00236
ACCGCA | 0 | 0.00167 | 0.00105 | 0.00289
ACAAGU | 0.00214 | 0.00929 | 0.0021 | 0
ACAACC | 0 | 0 | 0 | 0.00249
GCUUCU | 0.0041 | 0 | 0.00266 | 0.000648
CCAUCA | 0.00259 | 0 | 0.000306 | 0

# (cont.)

Sequence,m5C methylation level at the target C [1],m5C methylation level at the target C (parent substrate: substrate #2),m5C methylation level at the target C (parent substrate: substrate #3),m5C methylation level at the target C (parent substrate: substrate #4)
UCAAAA,0.00159,0,0,0
UCUUGG,0,0.00121,0,0.00279
GCGAAC,0.00473,0.0102,0.000575,0.00297
GCGACA,0.000646,0.00163,0.00118,0.000748
UCACUA,0,0,0.00059,0.000549
CCGCGC,0.000407,0.00104,0.00474,0.00157
UCGACA,0.00188,0,0.00714,0.00119
UCGGUG,0.0028,0.00206,0.000669,0.00813
UCCGUC,0,0.00364,0.00124,0.00197
UCCAAU,0,0,0.00301,0.000632
GCGGUU,0,0.000751,0,0
GCUUGU,0.000592,0.00243,0.000769,0.00269
CCCAAG,0.00214,0.00082,0.00054,0
UCAAAG,0,0,0,0
UCCUAU,0,0.00114,0.00123,0
CCAGUC,0.000955,0.00685,0.00324,0.00178
CCAUGC,0,0,0.00414,0
CCUUCA,0.00203,0,0.0014,0.000902
GCGUCA,0.00231,0,0.000803,0.00185
ACCCUU,0,0.00269,0.000326,0
ACGGAA,0.000487,0.00113,0.00281,0.00309
GCCAUC,0.00103,0,0.000517,0.000562
ACCUUG,0.000543,0,0.000538,0.00397
GCUCUU,0.00497,0.00918,0.00384,0.0149
ACACCC,0,0.00395,0,0.000875

Sequence,m5C methylation level at the target C [1],m5C methylation level at the target C (parent substrate: substrate #2),m5C methylation level at the target C (parent substrate: substrate #3),m5C methylation level at the target C (parent substrate: substrate #4)
GCUCCA,0.454,0.0277,0.132,0.133
UCCAUA,0,0,0.00103,0.00154
GCGGAA,0.00126,0.0011,0.00605,0.00152
ACGCUG,0.00176,0.00396,0.00334,0
UCGCCU,0.00273,0.00106,0.000402,0
UCACAU,0,0,0.00403,0.00372
GCUUAA,0.000597,0.00503,0,0.00278
UCUCCC,0.00153,0,0,0.000967
UCUCUU,0,0,0,0.000675
UCCGAA,0.00132,0,0,0.000812
CCAGAA,0.00417,0.00983,0,0
ACUAUU,0.00245,0.00234,0,0.000773
CCCUCU,0.00702,0.00207,0.000602,0.00171
UCGUCC,0.00116,0.00163,0.000882,0.00209
ACACAG,0.000787,0,0.00489,0
GCGAUU,0.00273,0.00245,0.000986,0.00248
CCCCCG,0,0.00112,0.00205,0.000551
ACCCUG,0.0016,0.00389,0.00181,0
CCCGGC,0,0,0.00154,0
GCUAGA,0.00217,0.0021,0.000922,0.000889
ACCGAC,0.00476,0,0.000754,0.00104
CCCCUU,0.00335,0,0,0
UCCAGC,0,0,0.00157,0.00109
ACUAAG,0,0.00111,0.000864,0
UCGCGG,0.000763,0,0.00139,0.00301

Sequence,m5C methylation level at the target C [1],m5C methylation level at the target C (parent substrate: substrate #2),m5C methylation level at the target C (parent substrate: substrate #3),m5C methylation level at the target C (parent substrate: substrate #4)
ACUGCG,0.000478,0.00379,0.000995,0
UCCGCU,0,0,0.000624,0.00716
CCCGUG,0.00118,0,0.00118,0
CCUUGG,0,0.000879,0,0.00167
UCAUAU,0,0,0,0
ACGACU,0.00119,0.00131,0.00192,0
ACAGGA,0.00167,0.00127,0.00577,0.000876
CCAAGA,0,0,0.00394,0.000931
CCACUC,0.000587,0.000875,0.000279,0
GCACGC,0.00106,0.00101,0,0.0133
ACAGUG,0.000881,0.00166,0.00669,0
CCCGAG,0,0,0,0.0012
ACAUGA,0.0029,0,0,0.0033
ACCGGA,0,0.00379,0,0
ACUUAG,0.00265,0.00101,0.000471,0.00469
UCCCCC,0.0112,0,0.00157,0.000789
CCUACA,0.00171,0.00177,0.00323,0
CCAGCG,0.000592,0,0.0051,0.000686
CCACGA,0.000395,0,0.00229,0
GCUAAA,0.000724,0.00156,0.00241,0.00175
ACUAGU,0.00109,0,0.00186,0
ACCUGU,0.000705,0.00442,0.00066,0
GCCCGC,0.00217,0.00208,0.00319,0.0012
GCUCAA,0.0179,0.000898,0.00106,0
GCCUGG,0.00375,0,0.000643,0.00217

Sequence,m5C methylation level at the target C [1],m5C methylation level at the target C (parent substrate: substrate #2),m5C methylation level at the target C (parent substrate: substrate #3),m5C methylation level at the target C (parent substrate: substrate #4)
ACUGAA,0.00872,0,0.00613,0.00397
UCGGCU,0,0,0.000674,0.00181
ACGAAC,0.00547,0,0.000621,0
ACCCAC,0,0,0.000651,0
CCCGAA,0.00206,0.00106,0.00228,0.00273
GCGACG,0.000694,0,0.00387,0
ACGAGU,0.00547,0.00322,0,0
CCCAAA,0,0,0.000603,0
UCGACU,0.000922,0.00108,0,0
CCACUA,0.00097,0.00118,0.0014,0.00172
ACGCAU,0.00143,0.00204,0.00221,0.00184
ACAUUA,0.0123,0.00101,0.000678,0.000522
CCGAGA,0.00152,0.00104,0.000545,0.00256
GCAGCU,0.00102,0,0.000801,0.000777
ACCGUG,0.00159,0.000653,0.00152,0.00835
UCGUUC,0.0023,0.00413,0.000345,0
CCCACG,0.00519,0,0.000533,0.00262
ACGCGC,0.00881,0.00299,0.00208,0
ACGGUC,0.00178,0.00105,0.0117,0.00739
CCCCAU,0.00501,0,0.000754,0.00062
